Data taken from patent publication US10639379B2, “High affinity CXCR4 selective binding conjugate and method for using the same” (Mainline Biosciences LLC, priority 2017, dated 2020).

Amino acid sequences for entries named in this document (tags omitted).
UniProt P61073, whole entry: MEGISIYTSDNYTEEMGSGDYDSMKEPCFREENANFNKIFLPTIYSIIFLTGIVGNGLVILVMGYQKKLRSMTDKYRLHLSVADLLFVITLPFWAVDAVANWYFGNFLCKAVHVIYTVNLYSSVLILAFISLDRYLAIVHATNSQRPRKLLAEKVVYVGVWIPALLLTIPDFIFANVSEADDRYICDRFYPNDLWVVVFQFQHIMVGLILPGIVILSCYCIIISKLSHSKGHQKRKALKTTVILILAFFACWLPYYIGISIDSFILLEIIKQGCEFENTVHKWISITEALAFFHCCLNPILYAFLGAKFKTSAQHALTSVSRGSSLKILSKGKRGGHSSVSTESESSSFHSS

Molecular target: Human chemokine receptor CXCR4 expressed in Chem-1 cells (Homo sapiens, UniProt P61073)
Assay: biochemical
Procedure: Non-specific binding was estimated in the presence of 30 nM SDF-1α.

SMILES | IC50 [nM] | Kb [nM]
CC(=O)O[C@H]1C(=O)[C@@]2(C)[C@H]([C@H](OC(=O)c3ccccc3)[C@]3(O)C[C@H](OC(=O)[C@H](OC(=O)CCN4C(=O)CC(SC[C@H](NC(=O)CCOCCOCCOCCOCCOCCOCCNC(=O)[C@H](CCCCNC(C)C)NC(=O)[C@H]5CCC(=O)N[C@@H](Cc6ccccc6)C(=O)N[C@@H](Cc6ccc(O)cc6)C(=O)N[C@@H](CCCCNC(C)C)C(=O)N[C@H](CCCNC(=N)N)C(=O)N[C@@H](Cc6ccc7ccccc7c6)C(=O)NCC(=O)N5)C(=O)NCC(N)=O)C4=O)[C@@H](NC(=O)c4ccccc4)c4ccccc4)C(C)=C1C3(C)C)[C@]1(OC(C)=O)CO[C@@H]1C[C@@H]2O (stereo partly drawn) [MLB-1713, cyclo[Phe-Tyr-Lys(iPr)-(D-Arg)-2Nal-Gly-(D-Glu)]-Lys(iPr)-(mini-PEG6)-Cys(S-paclitaxel)-Gly-NH2] | 0.96 | 0.29
CC(=O)N[C@H]1CSCc2ccccc2CSC[C@@H](C(=O)N[C@@H](CCCCNC(C)C)C(=O)NCCOCCOCCOCCOCCOCCOCCC(=O)N[C@@H](CSC2CC(=O)N(CCC(=O)O[C@@H](C(=O)O[C@H]3C[C@@]4(O)[C@@H](OC(=O)c5ccccc5)[C@@H]5[C@]6(OC(C)=O)CO[C@@H]6C[C@H](O)[C@@]5(C)C(=O)[C@H](OC(C)=O)C(=C3C)C4(C)C)[C@@H](NC(=O)c3ccccc3)c3ccccc3)C2=O)C(N)=O)NC(=O)CNC(=O)[C@H](Cc2ccc3ccccc3c2)NC(=O)[C@@H](CCCNC(=N)N)NC(=O)[C@H](CCCCNC(C)C)NC(=O)[C@H](Cc2ccc(O)cc2)NC1=O (stereo partly shown) [MLB-1707] | 2.3 | 0.7
